Data reported in paper PMC5364480.
No constants are given. Whether binding was seen depends on the method and setting. Some entries that bind do so weakly or less than the wild type.

Protein sequences, listed by entry. Tags and fused reporters are not part of them. Lines headed by an entry give the natural chain unless they say otherwise; changes in a name come on top. Chains listed by the source or under a name are the forms on record and can include a tag or linker.
UniProt P17839: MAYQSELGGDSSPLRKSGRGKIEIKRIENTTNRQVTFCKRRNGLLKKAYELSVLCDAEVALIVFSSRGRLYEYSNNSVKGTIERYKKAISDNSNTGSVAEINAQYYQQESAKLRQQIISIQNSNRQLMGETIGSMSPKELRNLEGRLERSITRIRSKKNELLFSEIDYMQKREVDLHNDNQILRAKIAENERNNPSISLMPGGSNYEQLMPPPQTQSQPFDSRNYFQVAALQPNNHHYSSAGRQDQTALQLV
UniProt O22456: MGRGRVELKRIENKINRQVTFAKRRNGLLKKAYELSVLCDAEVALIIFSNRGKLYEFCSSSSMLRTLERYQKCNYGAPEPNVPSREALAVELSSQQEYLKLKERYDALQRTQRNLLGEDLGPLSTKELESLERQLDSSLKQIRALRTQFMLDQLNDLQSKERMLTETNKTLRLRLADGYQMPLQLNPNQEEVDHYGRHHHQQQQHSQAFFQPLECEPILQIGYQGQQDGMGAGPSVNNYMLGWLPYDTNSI
SEP3 AAAAGPL mutant, in vitro translated (O22456, form named): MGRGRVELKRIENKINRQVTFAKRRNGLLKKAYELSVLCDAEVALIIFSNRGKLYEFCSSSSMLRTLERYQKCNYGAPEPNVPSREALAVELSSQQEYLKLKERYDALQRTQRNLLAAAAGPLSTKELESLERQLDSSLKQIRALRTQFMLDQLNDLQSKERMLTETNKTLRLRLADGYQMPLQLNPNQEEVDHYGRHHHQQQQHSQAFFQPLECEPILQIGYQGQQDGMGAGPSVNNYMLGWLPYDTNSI

Biological target: AGAMOUS, in vitro translated (A.thaliana) (UniProt P17839)
Assay: native gel or EMSA; in vitro translated proteins on a biotin-labelled SEP3 promoter probe with two CArG boxes; SEP3 or mutant titrated against constant AG (1:1, 1:0.75, 1:0.50, 1:0.25); on ice 30 min; native 5% polyacrylamide gel

binding	Substance
binds weakly	SEP3 AAAAGPL mutant, in vitro translated (from UniProt O22456 1-251)
binds	SEP3(G121A/P122A/L123A), in vitro translated (from UniProt O22456 1-251)
binds	SEP3(P122A), in vitro translated (from UniProt O22456 1-251)
binds	native SEP3, in vitro translated (from UniProt O22456 1-251)
